Assay results as given in PMC9399058 (European Journal of Nuclear Medicine and Molecular Imaging, 2022).

Assay: general procedure: Fmoc solid-phase peptide synthesis; Trityl resin
Conditions: whole synthesis, scale 50 µmol

For Hex-Cys-Pro-Pro-Thr-Gln-Phe-Cys-OH, the isolated mass was 17.8 mg and the isolated yield was 32.8%.
